Experimental data: PubChem BioAssay AID504791 (Drosophila RNAi Screening Center, 2011)
Purpose: 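Factors in Argonaute-based small RNA production and activity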 (primary screen). Cells: Drosophila S2-derived reporter cells. Knock-down reagent: long dsRNA against Drosophila genes, about 150-250 ng dsRNA per well (siRNA assay); about 80-120 ng (miRNA assay). Duration: about 5 days (siRNA assay); about 4 days (miRNA assay). Treatment: copper sulfate induction of reporters: 25 µM (siRNA assay); 200 mM stated (miRNA assay), 1-2 days before reading. Measured: 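Per-well ratio of Renilla over firefly light, expressed relative to that plate's average ratio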. Units: stable assay Renilla, run 1 in luminescence; stable assay firefly, run 1 in luminescence. Rule for the call: 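a well was a first-pass pick when its plate-scaled ratio rose above 1.5 (siRNA assay) or 1.6 (miRNA assay), or dropped below 0.6; a gene counted only if two separate dsRNAs agreed on retest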.
The deposit covers about 23,000 reagents; this is an unselected part of those that have a named target and a result. Of all reagents, 199 (0.86%) were called active. 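Plate-scaled ratios behind the calls are not deposited; printed light signals are raw; many rows marked increased or decreased are still called inactive.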 A number with no mark means an inactive call. Reagents against one gene are numbered here. The record does not give: the direction of the score.

Adgf-C scored stable assay Renilla, run 1 = 7459; stable assay firefly, run 1 = 3.57e5.
For Notum, the values are stable assay Renilla, run 1 = 7923; stable assay firefly, run 1 = 3.76e5.
For Gle1 the deposit lists stable assay Renilla, run 1 = 9150; stable assay firefly, run 1 = 3.72e5.
Against CG10877, the entry reads stable assay Renilla, run 1 = 8044; stable assay firefly, run 1 = 3.97e5.
After knock-down of Sirup, the screen gave stable assay Renilla, run 1 = 6886; stable assay firefly, run 1 = 3.68e5.
After knock-down of vimar, the screen gave stable assay Renilla, run 1 = 3.64e5; stable assay firefly, run 1 = 1.47e6.
Depletion of olf413 #1 gave: stable assay Renilla, run 1 = 7183; stable assay firefly, run 1 = 5.79e5.
For olf413 #2, the entry reads stable assay Renilla, run 1 = 5802; stable assay firefly, run 1 = 4.34e5.
Knock-down of olf413 #3 gave: stable assay Renilla, run 1 = 6662; stable assay firefly, run 1 = 3.60e5.
Against olf413 #4 the deposit lists stable assay Renilla, run 1 = 5203; stable assay firefly, run 1 = 3.75e5.
CG9406 gave stable assay Renilla, run 1 = 8449; stable assay firefly, run 1 = 7.30e5.
CR16735 gave stable assay Renilla, run 1 = 6627; stable assay firefly, run 1 = 5.02e5.
After knock-down of CG13284, the record shows stable assay Renilla, run 1 = 6931; stable assay firefly, run 1 = 3.94e5.
CG14507 showed stable assay Renilla, run 1 = 5999; stable assay firefly, run 1 = 3.46e5.
Lgr3 #1 gave stable assay Renilla, run 1 = 6447; stable assay firefly, run 1 = 3.49e5.
After knock-down of Lgr3 #2, the record shows stable assay Renilla, run 1 = 8557; stable assay firefly, run 1 = 4.11e5.
Depletion of cdi resulted in: stable assay Renilla, run 1 = 8140; stable assay firefly, run 1 = 3.12e5.
After knock-down of CheB38a, the record shows stable assay Renilla, run 1 = 5331; stable assay firefly, run 1 = 4.61e5.
For Obp93a the deposit lists stable assay Renilla, run 1 = 7379; stable assay firefly, run 1 = 4.00e5.
Against gb the deposit lists stable assay Renilla, run 1 = 7745; stable assay firefly, run 1 = 4.68e5.
Knock-down of CG16749 resulted in: stable assay Renilla, run 1 = 6323; stable assay firefly, run 1 = 5.20e5.
After knock-down of Gr10a #1, the screen gave stable assay Renilla, run 1 = 6000; stable assay firefly, run 1 = 6.11e5.
Gr10a #2 showed stable assay Renilla, run 1 = 4519; stable assay firefly, run 1 = 3.59e5.
Against PH4alphaNE2, the values are stable assay Renilla, run 1 = 6267; stable assay firefly, run 1 = 3.82e5.
For CG3505, the values are stable assay Renilla, run 1 = 8914; stable assay firefly, run 1 = 4.80e5.
CG10185 showed stable assay Renilla, run 1 = 6696; stable assay firefly, run 1 = 3.61e5.
Against NitFhit, the entry reads stable assay Renilla, run 1 = 5799; stable assay firefly, run 1 = 3.17e5.
RpL19 gave stable assay Renilla, run 1 = 21802; stable assay firefly, run 1 = 9.16e5.
Depletion of Cpr47Ed resulted in: stable assay Renilla, run 1 = 6911; stable assay firefly, run 1 = 4.34e5.
CG4650 showed stable assay Renilla, run 1 = 7837; stable assay firefly, run 1 = 4.60e5.
With knock-down of CG15128, the screen gave stable assay Renilla, run 1 = 5003; stable assay firefly, run 1 = 2.44e5.
For Cdk8, the entry reads stable assay Renilla, run 1 = 7535; stable assay firefly, run 1 = 3.99e5.
Silencing of CG11141 came out at: stable assay Renilla, run 1 = 24664; stable assay firefly, run 1 = 2.39e6.
Against CG13559, the entry reads stable assay Renilla, run 1 = 5955; stable assay firefly, run 1 = 3.60e5.
After knock-down of CG8046, the record shows stable assay Renilla, run 1 = 8247; stable assay firefly, run 1 = 5.19e5.
